This continues a long series; more values of the same kind are listed elsewhere.
Tested on: moderate-to-severe chronic spontaneous urticaria (CSU)
Test: Phase 2 CSU study: urticaria activity score over 7 days (UAS7)
Format: in vivo, human
Parameters: key to UAS7 Change from baseline LS Mean (SE): UAS7 points; daily UAS score ranges 0–6 points/day, over 7 days
Settings: Omalizumab-Naïve Population with Outlier Removed
Excerpt: The study comprises a 12 week, randomized, double-blind, placebo-controlled, multi-center, dose-ranging efficacy and safety phase, followed by a 40 week open label extension (OLE) phase (see FIG. 1). The study consists of three phases and an optional OLE phase. […] Clinically, CSU is characterized by the spontaneous and recurrent appearance of pruritic hives. The proposed primary endpoints were the UAS7 at Week 12 in EU and EU reference countries and the ISS7 in the US. Regardless of where a participant was from, all assessments were the same. The UAS7 score is a composite score containing both the HSS7 and the ISS7. This allowed a global assessment of the two key components of urticaria: hives and itch. […] The UAS is a validated PRO measure. […] The daily UAS scores range from 0 to 6 point/day. […] Patients were to complete the UAS using the e-diary. […] The following secondary endpoints were to be analyzed using the same approach as for the primary endpoint: • Change from baseline in UAS7 at Week 4 • Change from baseline in UAS7 at Week 12 (for US and US reference countries) • Change from baseline in ISS7 at Week 12 (except US and US reference countries) • Change from baseline in HSS7 at Week 12 The following responder secondary endpoints were to be analyzed using the Cochran-Mantel-Haenszel test adjusted by region: • Proportion of participants with UAS7<6 at Week 12 • Proportion of participants with UAS7=0 at Week 12 Participants who received selected prohibited medications and/or rescue medications were to be considered as non-responders for time points after the medication usage. For other participants, all available data including those collected during the off-treatment period were to be used to determine the responder/non-responder status. Missing data were to be considered as non-responders.

`CC(C)(C=C(C#N)C(=O)N1CCC[C@@H](n2nc(-c3ccc(Oc4ccccc4)cc3F)c3c(N)ncnc32)C1)N1CCN(C2COC2)CC1` [rilzabrutinib, (R)-2-[3-[4-amino-3-(2-fluoro-4-phenoxy-phenyl)pyrazolo[3,4-d]pyrimidin-1-yl]piperidine-1-carbonyl]-4-methyl-4-[4-(oxetan-3-yl)piperazin-1-yl]pent-2-enenitrile] was tested, and the “UAS7 % Change difference for rilzabrutinib vs. placebo LS Mean (95% CI)” value (“UAS7 % Change difference … (95% CI)” for short) (400 mg BID, Week 1) was −25.02 %, the “UAS7 % Change from baseline LS Mean (SE)” value (400 mg BID, Week 1) was −34.55 (5.64) % and the “UAS7 Change difference for rilzabrutinib vs. placebo LS Mean (95% CI)” value (“UAS7 Change difference … (95% CI)” below) (400 mg BID, Week 1) was −6.25 (−11.33, −1.16). For the same compound, the “UAS7 Change from baseline LS Mean (SE)” value (400 mg BID, Week 1) was −9.85 (1.58), the “UAS7 % Change difference … (95% CI)” value (400 mg BID, Week 2) was −18.63 % and the “UAS7 % Change from baseline LS Mean (SE)” value (400 mg BID, Week 2) was −36.40 (5.49) %. For the same compound, the “UAS7 Change difference … (95% CI)” value (400 mg BID, Week 2) was −4.57 (−8.75, −0.39), the “UAS7 % Change difference … (95% CI)” value (400 mg BID, Week 3) was −20.05 % and the “UAS7 % Change from baseline LS Mean (SE)” value (400 mg BID, Week 3) was −40.21 (5.67) %. For the same compound, the “UAS7 Change difference … (95% CI)” value (400 mg BID, Week 3) was −5.12 (−9.46, −0.78), the “UAS7 Change from baseline LS Mean (SE)” value (400 mg BID, Week 3) was −11.96 (1.63) and the “UAS7 % Change difference … (95% CI)” value (400 mg BID, Week 4) was −22.88 %. The “UAS7 % Change from baseline LS Mean (SE)” value (400 mg BID, Week 4) was −43.62 (5.90) %, the “UAS7 Change difference … (95% CI)” value (400 mg BID, Week 4) was −5.82 (−10.34, −1.30) and the “UAS7 Change from baseline LS Mean (SE)” value (400 mg BID, Week 4) was −12.88 (1.70). For the same compound, the “UAS7 % Change from baseline LS Mean (SE)” value (400 mg BID, Week 5) was −41.62 (5.69) %, the “UAS7 Change difference … (95% CI)” value (400 mg BID, Week 5) was −1.59 (−6.13, 2.96) and the “UAS7 Change from baseline LS Mean (SE)” value (400 mg BID, Week 5) was −12.04 (1.71). The “UAS7 % Change difference … (95% CI)” value (400 mg BID, Week 6) was −14.22 %, the “UAS7 % Change from baseline LS Mean (SE)” value (400 mg BID, Week 6) was −41.32 (6.30) % and the “UAS7 Change difference … (95% CI)” value (400 mg BID, Week 6) was −2.96 (−7.92, 2.01). For the same compound, the “UAS7 Change from baseline LS Mean (SE)” value (400 mg BID, Week 6) was −12.20 (1.86), the “UAS7 % Change difference … (95% CI)” value (400 mg BID, Week 7) was −18.59 % and the “UAS7 % Change from baseline LS Mean (SE)” value (400 mg BID, Week 7) was −47.24 (5.95) %. For the same compound, the “UAS7 Change difference … (95% CI)” value (400 mg BID, Week 7) was −4.50 (−9.19, 0.19), the “UAS7 Change from baseline LS Mean (SE)” value (400 mg BID, Week 7) was −14.01 (1.76) and the “UAS7 % Change difference … (95% CI)” value (400 mg BID, Week 8) was −22.01 %. The “UAS7 % Change from baseline LS Mean (SE)” value (400 mg BID, Week 8) was −53.10 (6.28) %, the “UAS7 Change difference … (95% CI)” value (400 mg BID, Week 8) was −5.41 (−10.40, −0.43) and the “UAS7 Change from baseline LS Mean (SE)” value (400 mg BID, Week 8) was −15.43 (1.86). For the same compound, the “UAS7 % Change difference … (95% CI)” value (400 mg BID, Week 9) was −25.22 %, the “UAS7 % Change from baseline LS Mean (SE)” value (400 mg BID, Week 9) was −52.05 (6.41) % and the “UAS7 Change difference … (95% CI)” value (400 mg BID, Week 9) was −6.02 (−11.15, −0.89). The “UAS7 Change from baseline LS Mean (SE)” value (400 mg BID, Week 9) was −14.88 (1.92), the “UAS7 % Change difference … (95% CI)” value (400 mg BID, Week 10) was −21.34 % and the “UAS7 % Change from baseline LS Mean (SE)” value (400 mg BID, Week 10) was −51.72 (6.74) %. The “UAS7 Change difference … (95% CI)” value (400 mg BID, Week 10) was −5.41 (−10.69, −0.13), the “UAS7 Change from baseline LS Mean (SE)” value (400 mg BID, Week 10) was −15.06 (1.99) and the “UAS7 % Change difference … (95% CI)” value (400 mg BID, Week 11) was −21.48 %. The “UAS7 % Change from baseline LS Mean (SE)” value (400 mg BID, Week 11) was −49.79 (6.87) %, the “UAS7 Change difference … (95% CI)” value (400 mg BID, Week 11) was −5.15 (−10.44, 0.15) and the “UAS7 Change from baseline LS Mean (SE)” value (400 mg BID, Week 11) was −14.46 (1.99). The “UAS7 % Change difference … (95% CI)” value (400 mg BID, Week 12) was −18.45 %, the “UAS7 % Change from baseline LS Mean (SE)” value (400 mg BID, Week 12) was −49.10 (7.03) % and the “UAS7 Change difference … (95% CI)” value (400 mg BID, Week 12) was −4.29 (−9.74, 1.16). For the same compound, the “UAS7 Change from baseline LS Mean (SE)” value (400 mg BID, Week 12) was −14.30 (2.06), the “UAS7 % Change difference … (95% CI)” value (400 mg QPM, Week 1) was −12.25 % and the “UAS7 % Change from baseline LS Mean (SE)” value (400 mg QPM, Week 1) was −21.78 (5.44) %. For the same compound, the “UAS7 Change difference … (95% CI)” value (400 mg QPM, Week 1) was −3.54 (−8.57, 1.49), the “UAS7 Change from baseline LS Mean (SE)” value (400 mg QPM, Week 1) was −7.14 (1.53) and the “UAS7 % Change difference … (95% CI)” value (400 mg QPM, Week 2) was −6.70 %. For the same compound, the “UAS7 % Change from baseline LS Mean (SE)” value (400 mg QPM, Week 2) was −24.47 (5.29) %, the “UAS7 Change difference … (95% CI)” value (400 mg QPM, Week 2) was −1.89 (−6.02, 2.24) and the “UAS7 Change from baseline LS Mean (SE)” value (400 mg QPM, Week 2) was −7.82 (1.52). The “UAS7 % Change difference … (95% CI)” value (400 mg QPM, Week 3) was −8.86 %, the “UAS7 % Change from baseline LS Mean (SE)” value (400 mg QPM, Week 3) was −29.02 (5.48) % and the “UAS7 Change difference … (95% CI)” value (400 mg QPM, Week 3) was −2.44 (−6.74, 1.86). For the same compound, the “UAS7 Change from baseline LS Mean (SE)” value (400 mg QPM, Week 3) was −9.28 (1.58), the “UAS7 % Change difference … (95% CI)” value (400 mg QPM, Week 4) was −7.91 % and the “UAS7 % Change from baseline LS Mean (SE)” value (400 mg QPM, Week 4) was −28.65 (5.66) %. The “UAS7 Change difference … (95% CI)” value (400 mg QPM, Week 4) was −2.24 (−6.70, 2.22), the “UAS7 Change from baseline LS Mean (SE)” value (400 mg QPM, Week 4) was −9.30 (1.64) and the “UAS7 % Change difference … (95% CI)” value (400 mg QPM, Week 5) was 0.57 %. For the same compound, the “UAS7 % Change from baseline LS Mean (SE)” value (400 mg QPM, Week 5) was −32.16 (5.50) %, the “UAS7 Change difference … (95% CI)” value (400 mg QPM, Week 5) was 0.16 (−4.35, 4.67) and the “UAS7 Change from baseline LS Mean (SE)” value (400 mg QPM, Week 5) was −10.29 (1.65). The “UAS7 % Change difference … (95% CI)” value (400 mg QPM, Week 6) was −6.33 %, the “UAS7 % Change from baseline LS Mean (SE)” value (400 mg QPM, Week 6) was −33.42 (6.12) % and the “UAS7 Change difference … (95% CI)” value (400 mg QPM, Week 6) was −1.41 (−6.38, 3.55). For the same compound, the “UAS7 Change from baseline LS Mean (SE)” value (400 mg QPM, Week 6) was −10.66 (1.81), the “UAS7 % Change difference … (95% CI)” value (400 mg QPM, Week 7) was −5.53 % and the “UAS7 % Change from baseline LS Mean (SE)” value (400 mg QPM, Week 7) was −34.18 (5.81) %. For the same compound, the “UAS7 Change from baseline LS Mean (SE)” value (400 mg QPM, Week 7) was −10.66 (1.72) and the “UAS7 % Change difference … (95% CI)” value (400 mg QPM, Week 8) was −4.03 %.

— patent publication US20260256792A1, “TREATMENT OF CHRONIC SPONTANEOUS URTICARIA BY ADMINISTERING (R)-2-[3-[4-AMINO-3-(2-FLUORO-4-PHENOXY-PHENYL)PYRAZOLO[3,4-D]PYRIMIDIN-1-YL]PIPERIDINE-1-CARBONYL]-4-METHYL-4-[4-(OXETAN-3-YL)PIPERAZIN-1-YL]PENT-2-ENENITRILE” (priority 2023, published 2026)
